From patent US20130302282A1, “Inhibitors of Hepatitis C Virus” (priority 2010, published 2013)
Some of these results come from one statement about several compounds together. For at least one compound, name, drawing or mass did not settle the structure.

System: 1b_Huh-Luc/Neo-ET cell line (bicistronic genotype 1b replicon in Huh 7 cells)
Assay: HCV 1b replicon assay, luciferase readout
Type: cell-based, HCV genotype 1b
Settings: read-out: EC50, half-maximal inhibition of HCV 1b replication
Protocol: Biological activity of the compounds of the invention was determined using an HCV replicon assay. The 1b_Huh-Luc/Neo-ET cell line persistently expressing a bicistronic genotype 1b replicon in Huh 7 cells was obtained from ReBLikon GMBH. This cell line was used to test compound inhibition using luciferase enzyme activity readout as a measurement of compound inhibition of replicon levels.
On Day 1 (the day after plating), each compound is added in triplicate to the cells. Plates incubated for 72 […] prior to running the luciferase assay. Enzyme activity was measured using a Bright-Glo Kit (cat. number E2620) manufactured by Promega Corporation. The following equation was used to generate a percent control value for each compound.
%Control=(Average Compound Value/Average Control)*100
The EC50 value was determined using GraphPad Prism and the following equation:
Y=Bottom+(Top−Bottom)/(1+10̂((LogIC50−X)*HillSlope))
EC50 values of compounds are repeated several times in the replicon assay.

CNC(=O)c1c(-c2ccc(Oc3ccc(F)cc3)cc2)oc2cc3c(cc12)C(C)OC(CO)CN3S(C)(=O)=O (stereo not shown) [Compound B191]
EC50: ≤ 10 nM
